# Out of some 52,000 sequences screened, about 210 (0.4%) were called active.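 Rule for the calls: active = gene whose silencing raises cell survival under the drug, median off-target-corrected z-score across its silencing RNAs 2 or more; inactive = the rest.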 The list shows a part of the results.
# Assay: Resistance to Poly (ADP-Ribose) Polymerase inhibitor: Gene Identification via Genome-wide siRNA Screen
# Conditions: mouse BRCA2 R2336H ES cells, olaparib, CellTiter-Glo viability; hits give high values
# Method in brief: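 Mouse BRCA2 R2336H ES cells were reverse-transfected with siRNA (20 nM final), treated at 48 h with 500 nM olaparib, and read by CellTiter-Glo after 72 h. Scores: MAD-based z per siRNA, median per gene, seed off-target correction.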
row,Sequence,z-score
1,GCAUUCAGAAAUUGAGGGUTT against Sin3b,inactive: -0.475
2,GCCCAAACAUUCUUCGACUTT against Ubl3,inactive: -1.19
3,GCCAUUUUGUCAAUUCACCTT against 0610040B21Rik,inactive: 1.58
4,CCGAUUUUUACUUUUAGCUTT against Slc16a7,inactive: 0.605
5,GGCAUCUUGGAGGAUUUGCTT against 0910001A06Rik,inactive: 1.02
6,GGAGAGGUGGAAAUCUCUATT against Rasgef1c,inactive: 0.298
7,CCAACUCGUGAUUCUAGACTT against 1110014C03Rik,inactive: 0.138
8,GGGCUCCUUAUGGAGGAUATT against A630091E08Rik,inactive: -1.2
9,GGCCUUGGAAAUGAUAAGUTT against Scrn3,inactive: -0.359
10,GGCCUGUGCACACUUCUGUTT against Edn3,inactive: 1.24
11,GGAACGAUGAGGAAAUCUCTT against Mclc,inactive: 0.622
12,GGCCAGAAGAUUCCUAAAGTT against Gulp1,inactive: 0.912
13,CCCUCACAGCGACUUUAACTT against BC022765,inactive: 0.663
14,GGCUGCACCUGAAUUCCAATT against Lrrn1,inactive: -0.205
15,GGCAAAUACAGGCUAAAGUTT against Caps2,inactive: -0.199
16,GGAACAUGACAGAGAUUUUTT against Bai1,inactive: 0.865
17,GGUGCUUUCUGCUUACUGATT against Ephb2,inactive: 1.43
18,CCAAUGGAACAUUAAGUGATT against Psma1,inactive: 1.97
19,CUACGUGCUAGCUCAAGGATT against Mmp28,inactive: 0.575
20,GGCCAAAGAAGAAAUCCAATT against Pop4,inactive: 1.14
21,GUCAUCAAUCAAGUCUUGATT against Olfr1408,inactive: -1.88
22,GGGUUUCAUUAAAUUUCCUTT against Cyp2g1,inactive: -0.283
23,GGUGAAGACAGAAUUUCCGTT against 1700128F08Rik,inactive: 0.392
24,GCUACACUAUUCUAGCAAATT against Cryzl1,inactive: 0.0429
25,GCAGUUGUCAUGCUAAACCTT against Ptpn2,inactive: 0.398
26,GGUGUUUAUCGACAGGUACTT against Myo15,inactive: 0.775

# 3 entries drawn at random from the list so far, as already listed:
row,Sequence,z-score
14,GGCUGCACCUGAAUUCCAATT against Lrrn1,inactive: -0.205
3,GCCAUUUUGUCAAUUCACCTT against 0610040B21Rik,inactive: 1.58
22,GGGUUUCAUUAAAUUUCCUTT against Cyp2g1,inactive: -0.283

# Going on with the list.

row,Sequence,z-score
1,GGAGCAGAAAAUCGUUGUGTT against 1100001I22Rik,inactive: -2.96
2,GGUGCAGUUGAACUUCUACTT against Dnajc1,inactive: 0.682
3,GGGAACUCCUUAUGAAUGGTT against Stau2,inactive: 0.0159
4,GGUCUCUUGGUGAUUUCCATT against Phyhipl,inactive: 1.26
5,GCCAGAGUACCACAUUAGUTT against Pcdhga4,inactive: 0.264
6,GCAAACAAAACAAGUGAGCTT against D630003K02Rik,inactive: 1.69
7,GGACCAUAGACAGAGAUUATT against Gprk5,inactive: 0.162
8,CCAGUGAUAACUCUCUUGUTT against A830039N20Rik,inactive: -0.905
9,CCGAAAAUGGUAAAUAACUTT against Rnf17,inactive: -0.717
10,GGUGCUUGUUUAAAUGGUUTT against Slc19a1,inactive: 0.329
11,GCACAGUACUAUCUCGGCATT against Ttc4,inactive: 0.293
12,GGGUGGGAGACGAAGAUAATT against Usp17,inactive: -1.53
13,CCAAGGACACUAUACAAAUTT against Fank1,inactive: -0.0621
14,CCAAGAAAGACCGUGUGAATT against Hdh,inactive: -2.21
15,GGCAGUUCUUUGUAUUAAATT against Dhcr7,inactive: 0.863
16,GGAGCUGUUUGACAGUUUUTT against Nin,inactive: -0.38
17,GGAUCACUUUGACCACAACTT against 1700093E07Rik,inactive: 0.14
18,GGAACAGGACUUUUGAUAATT against 2700050F09Rik,active: 1.03
19,GGAAAAGAAACACAUCUGGTT against Col2a1,inactive: 1.6
20,CCUGGCAUUUGGAGCAUUCTT against Olfr1154,inactive: -0.497
21,GCAUUACAAAUUGUCUACATT against Ugdh,inactive: -0.304
22,GGAUGAGCAGAGCAUCUGUTT against BC050188,inactive: 1.3
23,CGCAGUGAUUAUGACCUCCTT against 1700023E05Rik,inactive: 0.865
24,GGAAGGAAAACCUUUCAACTT against Cyp2j6,inactive: -0.712
25,GGCUCAGAAUUGAUCCUAUTT against Mjd,inactive: 0.565
26,GGCGGAAUCACAUCACUUCTT against A030007L22,inactive: 0.322

row,Sequence,z-score
1,GCGAGAUGCGUUCAUGGACTT against P140,inactive: 0.434
2,GGUCUACUCUUCAUAUCGCTT against Rab3d,inactive: 1.18
3,GGCAUGAGCGAGUUAAACCTT against Usp53,inactive: 1.14
4,GCAGAUGAUACCUGGGCAATT against 1110061O04Rik,inactive: -0.936
5,CCAGCCAUAUCAACCGUAUTT against Prosapip1,inactive: -0.0677
6,GCAUCAUUUUAACACUUCUTT against Tubd1,inactive: 0.632
7,CCGCAUACCUCUAAGGUAGTT against 1300013D05Rik,inactive: 0.372
8,CGAUGUACUGUCUCUUUUGTT against Ywhaz,inactive: 1.53
9,GGUGAAGGCUGACCGAGAUTT against Rps14,inactive: -3.23
10,GCCUAGCAAUGACUGGGAUTT against 0610038F07Rik,inactive: 0.22
11,CCUCACACUUCACUACUGATT against 2400006N03Rik,inactive: -1.52
12,CCCUGAUUGAUCGGUCUUGTT against MGC68340,inactive: -0.893
13,GGAGGUGAAACCAUAAAAATT against D3Ertd330e,inactive: -2.19
14,GGCUGAUGAUAAGCUGAUUTT against Letm1,inactive: 0.443
15,GGAAUUGUUAAUUGUGGGATT against Stau2,inactive: 0.207
16,GGACAUUACCAGCUUGCUGTT against Nkd1,inactive: 0.24
17,GGAUGCUCUAGUUCCAUUATT against Aym1,inactive: 0.251
18,CCCAGGGAAACCUUAACUCTT against Pstpip1,inactive: -0.263
19,GGGAAUUGCUCACCUCCAUTT against Klre1,inactive: -0.871
20,GGACAUCCUCUUACAGUGGTT against 1810010M01Rik,inactive: -0.808
21,CCCACUUUGACACGACACATT against Sertad1,inactive: -0.769
22,GGAACAGAAAGCUAUGGAUTT against Surf6,inactive: -0.706
23,GGUCUACGACCGAUGUUCUTT against 9530003J23Rik,inactive: -1.1
24,GGCAUCUCCAAGAUGUUUCTT against 4931414L13Rik,inactive: 0.706
25,GCAAGACCGAAGUCACGGATT against Krt1-19,inactive: 0.0699
26,CCAGGAGGAUACAAUCCCUTT against Rgs3,inactive: -0.508

row,Sequence,z-score
1,GUCGCAUCUCCAAAAAUGGTT against Olfr340,inactive: -1.44
2,GGACCAGUGUCUUAUUAAUTT against Osbpl8,inactive: 0.0755
3,CCCACCAAAUAAUUGGAAUTT against E130113K22Rik,inactive: 0.254
4,GCGUGCACACCUUUGAACUTT against 4930563M21Rik,inactive: 0.272
5,GGAGAGAAGAAAGAAAAAGTT against Gps2,inactive: 0.239
6,GGUUAUGAGAAUCUAAGAUTT against Ypel5,inactive: -0.228
7,GGAAGAAGGCAGAAGAGUUTT against Ube2l6,inactive: -0.483
8,GCAAGUCCUCUACCUUCUCTT against V1rh10,inactive: -0.658
9,GGACUGAAGCAGUAUCAAGTT against Eaf2,inactive: -0.122
10,GCAGUGCAGAUCGUUAUUGTT against Stx7,inactive: 1.01
11,CCCUGACCUUCAGAUUGUGTT against Olfr788,inactive: 0.116
12,GCUAGAAAUAGCCUUAGGUTT against B230106I24Rik,inactive: 0.435
13,GGUCAGAAGAGUUUGCUAATT against 4933405A16Rik,inactive: 1.31
14,GCCUUGAAGUUCAAAGGAATT against 1700021I09Rik,inactive: 0.404
15,GGUUUUAUUGCCUAAAAAGTT against Ankfy1,inactive: 1.08
16,CGAUGAGCCUUUUAAUUGUTT against 9030612M13Rik,inactive: 1.49
17,GGUCGACCUAUUGGUAUUCTT against Oas1h,inactive: -0.564
18,CGAAACUACCUUCUCAAGCTT against Jmjd1b,inactive: 0.636
19,GCAAAUAAUGACGUGGCUATT against 4932432N11Rik,inactive: 0.735
20,GGACUUUGUACAUUGUUUUTT against Actb,inactive: 1.63
21,CGGUCUGUGUAUGUUAAGATT against Upp2,inactive: 0.729
22,GGCAGUUCAUGUUUAAAGATT against Fgfr1op2,inactive: 0.146
23,GGGAUGAAUCCUAUUAGUATT against Stau1,inactive: -0.158
24,GCAAGUCCUAGUGUCCUGATT against 5830445C04Rik,inactive: -1.66
25,GGUAUGCUAUGAUCUUAACTT against Olfr561,inactive: 1.21
